# Test results as given in PubChem BioAssay AID445 (National Center for Advancing Translational Sciences (NCATS), 2006).
# The other results are listed elsewhere or left out. Further columns of the screen follow, without active or inactive calls. The list favours compounds with an active or inconclusive main result. Potencies come from curve fits of mixed quality, noted in brackets.
# Test: IkB Signaling
# Details: ABC-DLBCL IkBa-CBG/CBR dual luciferase ratio (green luciferase fused to IkBa over red control in OCI-Ly3 lymphoma cells), 4 h
# Summary of the method: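 Luminescence ratio of IκBα-fused green versus native red beetle luciferase in OCI-Ly3 cells, 4 h post-doxycycline with compound; red signal alone, scaled from basal (0%) to zero light (-100%), flagged nonspecific or cytotoxic effects.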
# [1] = measured here: control luc red channel unless noted
# [2] = measured here: IkB-luc green channel
# [3] = measured here: control luc red channel
structure (smiles),measurement,setting,value
COc1ccc(-c2cc(-c3c(O)c(OC)c4occc4c3OC)[nH]n2)cc1OC,AC50,[1],"25.1 µM [falling, single point]"
COc1ccc(Cl)cc1S(=O)(=O)N1CCN(CC(=O)Nc2ccccc2C(F)(F)F)CC1,AC50,[1],"39.8 µM [falling, partial curve]"
CCSc1nc2c([nH]c3ccccc32)c(=O)n1-c1cccc(OC)c1,AC50,[1],"39.8 µM [falling, single point]"
c1ccc(-c2noc(-c3ccco3)n2)nc1,AC50,[1],"12.6 µM [falling, partial curve]"
COc1cc(C(=O)Nc2cccc(OCc3cc(=O)n4cc(C)sc4n3)c2)cc(OC)c1OC,AC50,[1],"2 µM [falling, full curve]"
CC(=O)Nc1nonc1-c1nnc(SCC(=O)Nc2cccc(C)c2C)n1-c1ccccc1,AC50,[1],"15.8 µM [falling, partial curve]"
COc1ccc(-c2nc(CCNC(=O)c3c(F)cccc3Cl)cs2)cc1,AC50,[1],"39.8 µM [falling, single point]"
CC1CCN(C(=O)Cn2cc(SCC(=O)Nc3ccccc3C(F)(F)F)c3ccccc32)CC1,AC50,[1],"25.1 µM [falling, single point]"
Cc1ccc(-n2ncc(C(=O)N3CCN(c4ncccn4)CC3)c2C2CCN(C(=O)OC(C)(C)C)CC2)cc1,AC50,[1],"20 µM [falling, partial curve]"
COc1ccc(S(=O)(=O)NCCSCc2cccs2)cc1,AC50,[1],"20 µM [falling, partial curve]"
C=CCn1c(SCC(=O)NC2CCCC2)nc2scc(-c3ccco3)c2c1=O,AC50,[1],"39.8 µM [rising, single point] [measured here: IkB-luc green channel]"
Cc1nc(-c2ccc(S(=O)(=O)N(C)Cc3ccccc3)cc2)co1,AC50,[1],"20 µM [falling, partial curve]"
CCn1c2ccccc2c2nnc(N3CCN(c4ccc(OC)cc4)CC3)nc21,AC50,[1],"6.31 µM [falling, partial curve]"
Cc1nc2sccn2c1-c1csc(NCc2ccccc2)n1,AC50,[1],"20 µM [falling, partial curve]"
CCn1c(COc2ccc(Cl)cc2)nnc1SCc1ccc(C#N)cc1,AC50,[1],"6.31 µM [falling, partial curve]"
CCCCCc1ccc(-c2ccc(C(=O)Oc3ccc(C(=O)OC)cc3)cc2)nc1,AC50,[1],"0.126 µM [falling, full curve]"
COc1ccccc1Nc1c2c(nc3ccc(NC(=O)/C=C/c4cc(OC)c(OC)c(OC)c4)cc13)CCCC2,AC50,[1],"25.1 µM [falling, partial curve]"
O=C(Cc1cn2ccsc2n1)OCc1ccccc1,AC50,[1],"10 µM [falling, partial curve]"
COc1ccccc1CNC(=O)c1ccc(CSc2nc3ccncc3n2Cc2ccccc2C)cc1,AC50,[1],"10 µM [falling, partial curve]"
O=C(c1ccc(Nc2nc3ccccc3n3nnnc23)cc1)N1CCN(c2ccc(F)cc2)CC1,AC50,[1],"6.31 µM [falling, full curve]"
COc1cc(NC(=O)c2cc3nc(-c4ccc(C)cc4)cc(C(F)(F)F)n3n2)cc(OC)c1OC,AC50,[1],"10 µM [falling, partial curve]"
O=S(=O)(Nc1ccc(F)cc1F)c1ccc(Br)s1,AC50,[1],"25.1 µM [falling, single point]"
COc1ccc(CCNC(=O)c2cnc3sc(N4CCOCC4)nn3c2=O)cc1OC,AC50,[1],"25.1 µM [rising, single point]"
O=C(Nc1cc(-c2nc3cc(Cl)ccc3o2)ccc1Cl)c1cccc2ccccc12,AC50,[1],"2 µM [falling, full curve]"
COc1ccc(CCNC(=O)c2c[nH]n3c(=O)c(Cc4ccccc4Cl)c(C)nc23)cc1OC,AC50,[1],"31.6 µM [falling, partial curve]"
CCn1c2c(c(=O)n3ncc(C(=O)Nc4ccc(OC(F)(F)F)cc4)c13)CN(Cc1ccc(OC)cc1)CC2,AC50,[1],"3.16 µM [falling, partial curve]"
COc1cccc(C(=O)Nc2ccc3nc(N4CCN(c5ncccn5)CC4)cc(C)c3c2)c1OC,AC50,[1],"1.26 µM [falling, full curve]"
Fc1ccc([C@@H]2Nc3ccccc3[C@@H]3C=CC[C@@H]32)cc1,AC50,[1],"15.8 µM [falling, partial curve]"
COc1ccc(/C=C/c2nc(C#N)c(N3CCCCCC3)o2)cc1OC,AC50,[1],"39.8 µM [falling, single point]"
O=C(Cn1cc(S(=O)(=O)c2ccc(Cl)cc2)c(=O)c2ccccc21)Nc1ccc2c(c1)OCO2,AC50,[1],"2 µM [falling, partial curve]"
COc1ccc(CNS(=O)(=O)c2ccc3c(c2)NC(=O)C(C)C(=O)N3)cc1 (centres undefined),AC50,[1],"15.8 µM [falling, single point]"
Cc1ccc(C)c(S(=O)(=O)Nc2ccc3c(c2)CCCN3C(=O)c2cccs2)c1,AC50,[1],"31.6 µM [falling, partial curve]"
Cc1ccc(C)c(Nc2ncnc3c2cnn3-c2ccc(F)cc2)c1,AC50,[1],"20 µM [falling, single point]"
COc1ccc(C)cc1NS(=O)(=O)c1ccc(-c2cnc(C3CC3)o2)cc1,AC50,[1],"0.794 µM [rising, full curve]"
CCc1ccc(Nc2ncnc3sc4c(c23)CCCC4)cc1,AC50,[1],"6.31 µM [rising, single point]"
CCCN(C(=O)c1cc2c(=O)n(CC)c3ccccc3c2s1)c1ccccc1F,AC50,[1],"10 µM [falling, partial curve]"
CCCCNC(=O)c1cc(-c2ccc(F)cc2)on1,AC50,[1],"2 µM [falling, partial curve]"
O=C(c1cccc([N+](=O)[O-])c1)N1c2nc(-c3ccco3)nn2C2(CCCCC2)[C@@H]2CCCC[C@@H]21,AC50,[1],"5.01 µM [falling, full curve]"
CCCC(=O)c1cc2c(cc1NC(=O)c1ccccc1F)OCCO2,AC50,[1],"3.16 µM [rising, single point]"
COc1cccc(CNC(=O)C2CCCN(S(=O)(=O)c3ccc4c(ccn4C)c3)C2)c1OC (centres undefined),AC50,[1],"10 µM [falling, partial curve]"
Cc1cc(C(=O)Nc2cccc(C(F)(F)F)c2)c2c(C)nn(-c3cccc(F)c3)c2n1,AC50,[1],"39.8 µM [falling, single point]"
CC(=O)Nc1ccc(NC(=O)CC(C)n2ccc(C)n2)cc1 (centres undefined),AC50,[1],"12.6 µM [falling, partial curve, poor fit]"
Oc1ccc(O)c2c(O)cccc12,AC50,[2],"31.6 µM [rising, partial curve]"
same,AC50,[3],"0.631 µM [falling, full curve]"
Cc1cccc(N2C(=O)C(CC(=O)Nc3ccccc3)N(C3CCCCC3)C2=O)c1 (centres undefined),AC50,[1],"39.8 µM [falling, single point]"
CCOC(=O)c1c(C)[nH]c(C)c1S(=O)(=O)N(C)CC(=O)N1CCN(c2cccc(C)c2C)CC1,AC50,[1],"10 µM [falling, partial curve]"
O=C1c2ccccc2C(=O)N1CCCCSc1nnnn1-c1ccccc1,AC50,[1],"20 µM [falling, partial curve]"
CCOC(=O)c1c(C)oc2nc(C)nc(NCCCN3CCN(c4ccccc4OC)CC3)c12,AC50,[1],"25.1 µM [falling, partial curve]"
CCOc1ccc(C(=O)Nc2c(C)nc(Nc3ccccc3)nc2Nc2ccccc2)cc1OCC,AC50,[1],"25.1 µM [falling, partial curve]"
COc1ccc(CCNc2nc(-c3ccccc3OC)cc(C(F)(F)F)n2)cc1OC,AC50,[1],"15.8 µM [falling, partial curve]"
CCCn1nc(-c2ccccc2)c2nc3ccccc3nc21,AC50,[1],"5.01 µM [rising, single point]"
COc1ccc(C2C(C(=O)N3CCN(c4ccccc4F)CC3)c3ccccc3C(=O)N2C)cc1 (centres undefined),AC50,[1],"25.1 µM [falling, partial curve]"
O=C(NCCc1ccccc1)c1c2c(nc3ccccc13)C(=O)N(C1CCCCC1)C2,AC50,[1],"10 µM [falling, partial curve]"
Cc1oc(-c2cccc(Cl)c2)nc1CN1CCC(C(=O)NCc2ccc(F)cc2)CC1,AC50,[1],"25.1 µM [falling, single point]"
Cc1c(Cl)cc(C(C)(C)C)c(O)c1Cc1c(C)c(Cl)cc(C(C)(C)C)c1O,AC50,[1],"3.16 µM [falling, single point]"
CCCN1C(=O)c2[nH]nc(-c3ccc(F)cc3)c2C1c1ccc(O)c(OCC)c1 (centres undefined),AC50,[1],"39.8 µM [falling, single point]"
COc1cccc(NC(=O)Cc2ccc(NC(=O)N3CCCCc4ccccc43)cc2)c1,AC50,[1],"12.6 µM [falling, partial curve]"
Cc1ccccc1Cn1c(=O)n(CCCCC(=O)NCc2ccc3c(c2)OCO3)c(=O)c2ccccc21,AC50,[1],"3.16 µM [rising, full curve]"
CN(C)Cc1nc2ccccc2c(=O)n1Cc1nc(-c2cc3ccccc3o2)cs1,AC50,[1],"25.1 µM [falling, partial curve]"
Cc1ccc(N2C(=O)CSC23C(=O)Nc2ccccc23)cc1F (centres undefined),AC50,[1],"25.1 µM [falling, partial curve]"
Cc1ccc2oc(C(=O)NCC(c3ccc(Cl)cc3)N3CCOCC3)c(C)c2c1 (centres undefined),AC50,[1],"25.1 µM [falling, partial curve]"
O=[N+]([O-])c1cc(Cl)c(Cl)c(Cl)c1Cl,AC50,[1],"39.8 µM [rising, partial curve] [measured here: IkB-luc green channel]"
COc1ccccc1NC(=O)CN1C(=O)C(C)(C)c2ccccc21,AC50,[2],"31.6 µM [rising, single point]"
same,AC50,[3],"1 µM [rising, single point]"

# Random excerpt: 2 records from the list, in no set order.
structure (smiles),measurement,setting,value
O=C1c2ccccc2C(=O)N1CCCCSc1nnnn1-c1ccccc1,AC50,[1],"20 µM [falling, partial curve]"
Cc1cc(C(=O)Nc2cccc(C(F)(F)F)c2)c2c(C)nn(-c3cccc(F)c3)c2n1,AC50,[1],"39.8 µM [falling, single point]"
